{"sequences": {"note": "Sequences of proteins named here, by UniProt entry; tags and fusion partners are left off. A change or cut given only in a name is not applied to a line headed by its entry.", "UniProt Q8IL11, whole entry, looked up, stated change not applied": "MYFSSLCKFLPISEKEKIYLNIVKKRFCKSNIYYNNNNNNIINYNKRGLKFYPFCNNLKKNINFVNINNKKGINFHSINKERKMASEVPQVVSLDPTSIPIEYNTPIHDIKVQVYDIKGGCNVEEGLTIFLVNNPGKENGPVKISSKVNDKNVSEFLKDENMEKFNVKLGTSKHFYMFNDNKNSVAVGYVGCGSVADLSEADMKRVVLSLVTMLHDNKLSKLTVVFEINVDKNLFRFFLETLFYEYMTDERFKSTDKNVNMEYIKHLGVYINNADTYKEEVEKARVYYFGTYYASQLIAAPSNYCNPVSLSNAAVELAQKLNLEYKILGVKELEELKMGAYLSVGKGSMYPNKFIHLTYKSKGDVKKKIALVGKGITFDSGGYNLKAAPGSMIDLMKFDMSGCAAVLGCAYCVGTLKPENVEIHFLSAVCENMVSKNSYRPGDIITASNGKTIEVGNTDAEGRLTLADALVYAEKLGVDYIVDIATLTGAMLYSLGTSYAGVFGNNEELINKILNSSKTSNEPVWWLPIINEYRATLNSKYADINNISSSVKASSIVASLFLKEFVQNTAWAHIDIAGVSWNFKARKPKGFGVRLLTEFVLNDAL"}, "source": "paper doi:10.1101/2020.10.08.331538", "about": "(bioRxiv, 2020)", "key": {"[1]": {"target": "PfA-M17 (W525A + Y533A) (Plasmodium falciparum) (UniProt Q8IL11)", "assay": "AUC"}, "[2]": {"target": "PfA-M17 (W525A + Y533A) (Plasmodium falciparum) (UniProt Q8IL11)", "assay": "AUC", "remark": "listed apart in the source"}}, "note": "Where two headings read alike, the source gives them in different places. No constants are given. Whether binding was seen depends on the method and setting.", "data": [{"substance": "PfA-M17 (W525A + Y533A) (from UniProt Q8IL11 84-605) (enzyme)", "values": [{"measurement": "binding", "setting": "[1]", "value": "no binding (tested: 0.5 mg/mL)"}, {"measurement": "binding", "setting": "[2]", "value": "no binding (tested: 8.3 µM and 4.2 µM)"}]}]}
